Binding data for 15 molecules are collected here from paper PMC12595034.

Amino acid sequences for entries named in this document (tags omitted). A change or cut given only in a name is not applied to a line headed by its entry.
UniProt F4IWJ9: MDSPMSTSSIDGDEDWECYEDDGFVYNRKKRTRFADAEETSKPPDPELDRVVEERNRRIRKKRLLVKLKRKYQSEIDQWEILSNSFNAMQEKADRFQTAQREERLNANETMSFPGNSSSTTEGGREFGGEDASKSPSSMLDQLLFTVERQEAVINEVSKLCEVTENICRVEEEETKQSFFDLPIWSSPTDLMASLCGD
UniProt F4JHD1: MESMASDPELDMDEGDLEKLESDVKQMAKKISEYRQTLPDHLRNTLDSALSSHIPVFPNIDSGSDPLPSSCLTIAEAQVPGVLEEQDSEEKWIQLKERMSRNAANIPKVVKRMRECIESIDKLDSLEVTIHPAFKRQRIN
UniProt Q9M1J8: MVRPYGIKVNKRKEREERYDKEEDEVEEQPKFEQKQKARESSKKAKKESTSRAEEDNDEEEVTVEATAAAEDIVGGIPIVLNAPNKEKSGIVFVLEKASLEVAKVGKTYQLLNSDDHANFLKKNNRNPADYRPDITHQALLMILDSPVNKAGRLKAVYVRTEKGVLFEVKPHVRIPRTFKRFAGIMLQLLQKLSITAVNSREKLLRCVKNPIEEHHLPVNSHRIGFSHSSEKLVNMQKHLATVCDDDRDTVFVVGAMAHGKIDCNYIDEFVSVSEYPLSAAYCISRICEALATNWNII
UniProt F4HR01: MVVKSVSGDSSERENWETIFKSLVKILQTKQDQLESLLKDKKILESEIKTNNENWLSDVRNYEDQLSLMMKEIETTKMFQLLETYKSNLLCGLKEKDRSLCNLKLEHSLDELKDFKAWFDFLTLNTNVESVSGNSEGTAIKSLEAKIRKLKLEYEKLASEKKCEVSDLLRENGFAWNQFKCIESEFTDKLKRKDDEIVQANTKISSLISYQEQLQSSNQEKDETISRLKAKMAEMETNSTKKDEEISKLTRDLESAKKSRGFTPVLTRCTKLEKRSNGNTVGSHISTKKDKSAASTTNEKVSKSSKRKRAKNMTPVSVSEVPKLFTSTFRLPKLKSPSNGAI
UniProt F4J2K4: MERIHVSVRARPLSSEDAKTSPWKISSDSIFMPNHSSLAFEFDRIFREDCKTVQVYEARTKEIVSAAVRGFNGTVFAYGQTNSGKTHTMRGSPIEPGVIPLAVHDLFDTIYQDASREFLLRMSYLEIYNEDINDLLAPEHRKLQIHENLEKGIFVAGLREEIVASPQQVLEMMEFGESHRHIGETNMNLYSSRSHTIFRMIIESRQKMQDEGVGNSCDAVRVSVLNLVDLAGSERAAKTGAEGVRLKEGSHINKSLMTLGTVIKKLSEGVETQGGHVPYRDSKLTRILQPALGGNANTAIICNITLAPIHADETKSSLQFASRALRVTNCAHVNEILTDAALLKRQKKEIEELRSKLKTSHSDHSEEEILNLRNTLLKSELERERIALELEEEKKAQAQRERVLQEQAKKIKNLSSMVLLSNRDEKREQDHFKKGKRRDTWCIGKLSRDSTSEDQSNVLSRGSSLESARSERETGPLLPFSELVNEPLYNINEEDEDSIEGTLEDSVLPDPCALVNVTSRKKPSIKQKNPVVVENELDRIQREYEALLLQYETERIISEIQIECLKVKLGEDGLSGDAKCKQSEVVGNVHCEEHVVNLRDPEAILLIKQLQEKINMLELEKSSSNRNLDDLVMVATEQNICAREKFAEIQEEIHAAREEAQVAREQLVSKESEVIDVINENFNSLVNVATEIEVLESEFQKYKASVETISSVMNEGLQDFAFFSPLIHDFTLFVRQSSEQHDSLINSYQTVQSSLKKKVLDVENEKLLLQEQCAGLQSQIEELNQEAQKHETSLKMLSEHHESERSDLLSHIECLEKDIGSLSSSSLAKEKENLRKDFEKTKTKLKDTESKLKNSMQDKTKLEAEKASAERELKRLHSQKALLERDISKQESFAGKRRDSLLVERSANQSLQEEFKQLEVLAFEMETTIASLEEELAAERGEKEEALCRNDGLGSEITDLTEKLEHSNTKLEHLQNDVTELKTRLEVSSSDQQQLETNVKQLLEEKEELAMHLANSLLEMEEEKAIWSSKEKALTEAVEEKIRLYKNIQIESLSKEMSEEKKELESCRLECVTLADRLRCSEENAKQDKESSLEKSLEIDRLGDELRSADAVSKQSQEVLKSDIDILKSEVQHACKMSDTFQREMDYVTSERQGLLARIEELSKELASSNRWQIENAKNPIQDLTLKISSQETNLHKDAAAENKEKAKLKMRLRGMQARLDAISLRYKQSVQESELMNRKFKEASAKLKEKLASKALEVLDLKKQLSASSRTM
UniProt A0A1P8AM80: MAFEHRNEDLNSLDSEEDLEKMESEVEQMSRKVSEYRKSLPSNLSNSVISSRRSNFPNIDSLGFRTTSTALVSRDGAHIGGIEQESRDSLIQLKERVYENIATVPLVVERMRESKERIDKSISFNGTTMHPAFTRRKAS

What all share (assay): affinity purification with mass spectrometry; GSrhino-tagged bait expressed in Arabidopsis cell suspension culture; pull-down in triplicate for each bait, on-bead digest, Q Exactive; hits filtered by NSAF against a large control AP-MS dataset of non-related baits
Assay [1] concerns the target NGSrhino-DSN1 (Arabidopsis thaliana) (UniProt F4IWJ9).
Assay [2] addresses DSN1-CGSrhino (Arabidopsis thaliana) (UniProt F4IWJ9).
The target in assay [3] is NGSrhino-KNL1 (Arabidopsis thaliana).

Results are given in words; binding and its absence hold for the method and conditions named. In cells and extracts the contact can be indirect. Here binding means that the protein was enriched with, or labelled near, the bait; the list need not be complete.

On to NSL1.1 (from UniProt F4JHD1), for which the binding result in assay [1] and in assay [2] was “binds” in each case.

For the molecule AT3G57000 (from UniProt Q9M1J8), the binding entry in assay [1] is given as “binds”.

With AT1G19980 (from UniProt F4HR01), the binding result in assay [1] and in assay [2] was “binds” in each case.

Consider CENP-E (from UniProt F4J2K4), for which the binding entry in assay [1] and in assay [2] was “binds” in each case.

NSL1.2 (from UniProt A0A1P8AM80): the binding result in assay [1] and in assay [2] was “binds” throughout.

B1: atPEIP2, AtPEP2|Transducin/WD40 repeat-like superfamily protein (protein, UniProt Q9LF27 1-433)
chain: MDIDGEDVSRRLHVKFVTKLDSPFKVPVNSVAIPSNVTRLGLSSIVNSIIESENPEWKTEPFDFLIDGELIRMSLEEFLLAKGISAERTLEIEYIRAVTPRKEEEPSLHDDWVSAVNGSSPRFILTGCYDGLGRVWSSAGSCSHILEGHSGAISSVALVNSNDAETVTVATASKDRTLRLFKFDPAESVDSTTKVRAYKILRGHKASVQSVSAQKSGNMVCSSSWDCTINLWNTNESTSEGESVSVKKRKGNNQAEESQSEGEAVTSLVGHTQCVSSVVWPEHDVIYSSSWDHSVRRWDVETGKDSLNLFCGKALNTVDVGGESSALIAAGGSDPILRVWDPRKPGTSAPVFQFSSHSSWISACKWHKSSWFHLLSASYDGKIMLWDLRTAWPLSVIDTHNDKVLSADWWKGESVVSGGADSNLRISSGIAIS
In the case of B1, in assay [3], the binding entry is “binds”.

B2: BIN4, MID|double-stranded DNA binding protein (protein, UniProt Q9FLU1 1-454)
chain: MSSSSREGSPDWLRSYEAPMTTSLLSLSSSDDDSPYRESEVISSLPLPDDDGDDIVVLETESVELLTRKNSETKVVTKQVSIEQVFSRKKKADASLNLEDSCAGKENGNNVDCEKLSSKHKDAQGGADSVWLVSSDSEPSSPIKQEVTVSTEKDADFVLEATEEEPAVKTVRKEKSPKTKSKSSRKTPKEGNSAQEILKTEDKDTDTTIAEQVTPEKSPKTKSKSSRKTPKEENCAQEILKTEDKDKDTDTDTIIAEEVTTDQKIKPSSGSSSRLPLVLSEKVNRTKVLVECEGDSIDLSGDMGAVGRVVVSDTTGDMYLDLKGTIYKSTIIPSRTFCVVNVGQTEAKIEAIMNDFIQLIPQSNVYEAETMVEGTLEGFTFESDDESNKNAKTAVKPADQSVGTEEETNTKAKPKAKAKGETVIGKKRGRPSKEKQPPAKKARNSAPKKPKAKK
As for B2, the binding entry in assay [3] was “binds”.

B3: UGE5 (protein, UniProt Q9SN58 1-351)
chain: MMARNVLVSGGAGYIGSHTVLQLLLGGYSVVVVDNLDNSSAVSLQRVKKLAAEHGERLSFHQVDLRDRSALEKIFSETKFDAVIHFAGLKAVGESVEKPLLYYNNNLVGTITLLEVMAQHGCKNLVFSSSATVYGSPKEVPCTEEFPISALNPYGRTKLFIEEICRDVYGSDPEWKIILLRYFNPVGAHPSGDIGEDPRGIPNNLMPFVQQVAVGRRPHLTVFGNDYNTKDGTGVRDYIHVIDLADGHIAALRKLEDCKIGCEVYNLGTGNGTSVLEMVDAFEKASGKKIPLVIAGRRPGDAEVVYASTERAESELNWKAKYGIEEMCRDLWNWASNNPYGYDSSSEDNSH
Take B3: the binding entry in assay [1] was “binds”.

B4: ATEXPB3, ATHEXP BETA 1.6, EXPB3|expansin B3 (protein, UniProt Q9M0I2 26-264)
chain: TTNRHVSNSHWLPAVATWYGSPNGDGSDGGACGYGTLVDVKPLHARVGAVNPILFKNGEGCGACYKVRCLDKSICSRRAVTVIITDECPGCSKTSTHFDLSGAVFGRLAIAGESGPLRNRGLIPVIYRRTACKYRGKNIAFHVNEGSTDFWLSLLVEFEDGEGDIGSMHIRQAGAREWLEMKHVWGANWCIIGGPLKGPFSIKLTTLSAGKTLSATDVVPRNWAPKATYSSRLNFSPVL
Consider B4, for which, in assay [3], the binding entry is “binds”.

B5: HSP20-like chaperones superfamily (protein, UniProt Q9ZW31 1-153)
chain: MSMIPSFFNNNRRSNIFDPFSLDVWDPFKELTSSSLSRENSAIVNARVDWRETPEAHVFKADLPGLKKEEVKVEIEEDSVLKISGERHVEKEDKNDTWHRVERSSGQFTRRFRLPENVKMDQVKAAMENGVLTVTVPKAETKKADVKSIQISG
B5: in assay [3], the binding entry was “binds”.

B6: ATUBA2, UBA 2|ubiquitin activating enzyme 2 (protein, UniProt P92974 1-1077)
chain: MEPFVVKENIIASASSPMKKRRIDHTESADGSAINASNSSSIGLNNSIGGNDTVMSMAEFGNDNSNNQEIDEDLHSRQLAVYGRETMRKLFASNVLISGMQGLGVEIAKNIILAGVKSVTLHDENVVELWDLSSNFVFTEEDIGKNRALASVHKLQELNNAVAVSTLTGKLTKEQLSDFQVVVFVDISFEKATEIDDYCHSHQPPIAFIKADVRGLFGSLFCDFGPHFTVLDVDGEEPHSGIIASVSNENPGFVSCVDDERLEFEDGNLVVFSEVEGMTELNDGKPRKIKNVKPFSFTLEEDTSSYGQYMKGGIVTQVKQPKVLNFKPLREALKDPGDFLLSDFSKFDRPPLLHLAFQALDRFSSQAGRFPFAGSEEDAQKLVEIAVDINEGLGDARLEDVNSKLLRHLAFGSRAVLNPMAAMFGGIVGQEVVKACSGKFHPIFQFFYFDSVESLPKEPLDASEFRPQNSRYDAQISVFGSTLQKKLEDARVFVVGAGALGCEFLKNLALMGVSCGTQGKLTVTDDDVIEKSNLSRQFLFRDWNIGQAKSTVAATAAAGINSRLNIDALQNRVGPETENVFDDSFWENLTVVVNALDNVTARLYVDSRCVYFQKPLLESGTLGAKCNTQMVIPHLTENYGASRDPPEKQAPMCTVHSFPHNIDHCLTWARSEFEGLLEKTPAEVNAYLSDPVEYMKAMRTAGDAQARDTLGRVVECLEKEKCNSFQDCITWARLRFEDYFANRVKQLCYTFPEDAATSTGAPFWSAPKRFPRPLQFSSTDLSHINFVMAASILRAETFGIPTPEWAKTRAGLAEAVERVIVPDFEPKKDATIVTDEKATTLSTASVDDAAVIDELNAKLVRCRMSLQPEFRMKAIQFEKDDDTNYHMDMIAGLANMRARNYSVPEVDKLKAKFIAGRIIPAIATSTAMATGFVCLEMYKVLDGSHKVEDYRNTFANLALPLFSMAEPVPPKVVKHQDQSWTVWDRWVMRGNPTLRELLDWLKEKGLNAYSISCGSSLLYNSMFSRHKERMNRRVVDLARDVAGVELPAYRRHVDVVVACEDDNDADVDIPLVSVYFA
B6: the binding result in assay [3] is “binds”.

B7: Protein phosphatase 2 A (protein, UniProt Q39247 1-501)
chain: MNGGDDAATSGPPPSLEWRFSQVFGERTAGEEVQEVDIISAIEFDKSGDHLATGDRGGRVVLFERTDTKDHGGSRKDLEQTDYPVRHPEFRYKTEFQSHEPEFDYLKSLEIEEKINKIRWCQPANGALFLLSTNDKTIKYWKVQEKKIKKISEMNIDPSESSNIPPQLVTNGLPADKGHDYLSKDFSFPPGGIPSLRLPVVVTSQETNLVARCRRVYAHAHDYHINSISNSSDGETFISADDLRVNLWNLEISNQSFNIVDVKPTNMEDLTEVITSAEFHPIHCNMLAYSSSKGSIRLIDMRQSALCDSHTKLFEEPEAPGSRSFFTEIIASISDIKFSKDGRYILSRDYMTLKLWDINMDSGPVASYQVHEHLRPRLCDLYENDSIFDKFECCLSGDGLRVATGSYSNLFRVFGASQGSTEAATLEASKNPMRRQIQTPARPSRSIGSMTRVVRRGSESPGTEANGNAYDFTTKLLHMAWHPTENSIACAAANSLYMYYA
As for B7, in assay [2], the binding result is “binds”.

B8: casein kinase II beta subunit 4 (protein, UniProt O80507 1-283)
chain: MYKDRSGGGIMGGGGSSRSEILGGAIDRKRINDALDKHLKKSSPSTSRVFTSKDKDSVPSTSTAKSQLHSRSPDVESDTDSEGSDVSGSEGDDTSWISWFCNLRGNEFFCEVDEDYIQDDFNLCGLSGQVPYYDYALDLILDVESSNGDMFTEEQHEMVESAAEMLYGLIHVRYILTTKGMAAMMEKYKNYDFGRCPRVFCCGQSCLPVGQSDIPRSSTVKIYCPKCEDIYYPRSKYQGNIDGAYFGTTFPHLFLMAYGNMKPQKPAQNYVPKIFGFKVHNKQ
Regarding B8, the binding entry in assay [2] was “binds”.

B9: AtECA2/PICALM5a (protein, UniProt Q9SA65 1-599)
chain: MGSSKFKRAIGAVKDQTSVGLAKVNGRSASLSELDVAIVKATRHEEFPAEEKYIREILSLTSYSRSYINACVSTLSRRLNKTKCWTVALKTLILIQRLLGEGDQAYEQEIFFATRRGTRLLNMSDFRDVSRSNSWDYSAFVRTYALYLDERLDFRMQARHGKRGVYCVGGEADEEEQDQAAADLSTAIVVRSQPIAEMKTEQIFIRIQHLQQLLDRFLACRPTGNARNNRVVIVALYPIVKESFQIYYDVTEIMGILIERFMELDIPDSIKVYDIFCRVSKQFEELDQFYSWCKNMGIARSSEYPEIEKITQKKLDLMDEFIRDKSALEHTKQSKSVKSEADEDDDEARTEEVNEEQEDMNAIKALPEPPPKEEDDVKPEEEAKEEVIIEKKQEEMGDLLDLGNTNGGEAGQAGDSLALALFDGPYASGSGSESGPGWEAFKDDSADWETALVQTATNLSGQKSELGGGFDMLLLNGMYQHGAVNAAVKTSTAYGASGSASSMAFGSAGRPAATMLALPAPSTANGNAGNINSPVPMDPFAASLEVAPPAYVQMNDMEKKQRMLMEEQMMWDQYSRDGRQGHMNLRQNQNQPYSYTPQY
Consider B9, for which the binding result in assay [1] and in assay [2] was “binds” each time.

B10: CRWN4 (protein, UniProt Q9FLH0 1-1010)
chain: MATSSRSERFPITPSTAATNRLTITPNSRVLKSPLTEEIMWKRLKDAGFDEQSIKNRDKAALIAYIAKLESEVYDYQHNMGLLLLEKNELSSQYEEIKASVDESDLTHMREKSAYVSALAEAKKREESLKKDVGIAKECISSLEKTLHEMRAECAETKVSAGSTMSEAHVMIEDALKKLADAEAKMRAAEALQAEANRYHRIAERKLKEVESREDDLTRRLASFKSECETKENEMVIERQTLNERRKSLQQEHERLLDAQVSLNQREDHIFARSQELAELEKGLDTAKTTFEEERKAFEDKKSNLEIALALCAKREEAVSERESSLLKKEQELLVAEEKIASKESELIQNVLANQEVILRKRKSDVEAELECKSKSVEVEIESKRRAWELREVDIKQREDLVGEKEHDLEVQSRALAEKEKDITEKSFNLDEKEKNLVATEEDINRKTTMLEDEKERLRKLDLELQQSLTSLEDKRKRVDSATQKLEALKSETSELSTLEMKLKEELDDLRAQKLEMLAEADRLKVEKAKFEAEWEHIDVKREELRKEAEYITRQREAFSMYLKDERDNIKEERDALRNQHKNDVESLNREREEFMNKMVEEHSEWLSKIQRERADFLLGIEMQKRELEYCIENKREELENSSRDREKAFEQEKKLEEERIQSLKEMAEKELEHVQVELKRLDAERLEIKLDRERREREWAELKDSVEELKVQREKLETQRHMLRAERDEIRHEIEELKKLENLKVALDDMSMAKMQLSNLERSWEKVSALKQKVVSRDDELDLQNGVSTVSNSEDGYNSSMERQNGLTPSSATPFSWIKRCTNLIFKTSPEKSTLMHHYEEEGGVPSEKLKLESSRREEKAYTEGLSIAVERLEAGRKRRGNTSGDETSEPSNNKKRKHDVTQKYSDEADTQSVISSPQNVPEDKHELPSSQTQTPSGMVVISETVKITRVTCETEVTNKVTTLDCSESPSEAGRKMGEETEDGDCNQTGINASETVIHNEAATEDICT
For B10, the binding entry in assay [2] was “binds”.
